# Measurements taken from PubChem BioAssay AID504834 (National Center for Advancing Translational Sciences (NCATS), 2011).
# About 22,000 (6.9%) of roughly 320,000 compounds were called active. The inconclusive results got no clear call from the source; some entries with a clear call stand among them for comparison. The call rests on the fitted dose curve; in most records, active means well fitted inhibition curve with a large enough effect; inconclusive means small, poorly fitted or top-dose-only effect, or another doubt; inactive means no such curve, though single readings can be large or run the other way. A potency beside an inconclusive call is a rough fit, not a confirmed value.
# Assay: Primary qHTS for delayed death inhibitors of the malarial parasite plastid, 96 hour incubation
# Conditions: P. falciparum luciferase reporter growth; series mostly up to 28.7 µM
# How it was run: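 Two-generation exposure (96 h) targets delayed-death phenotype. Reporter parasites carrying integrated firefly luciferase, in red cells at 2% hematocrit and 0.05% parasitemia final, kept at 37 C, 5% CO2; luminescence loss indicates inhibition.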
# On the % scale 0 is the no-effect control and ±100 the full control effect; potency means the concentration at half of the fitted maximal effect.
SMILES,Potency,"activity change, negative = inhibition"
CCC(C)Sc1nc2c(c(=O)[nH]c(=O)n2C)n1C (centres undefined),"inconclusive: 16.5 µM [inhibitor, single point]",–
Cc1ccc(S(=O)(=O)N(C)C)cc1NC(=S)NC(=O)C12CC3CC(CC(C3)C1)C2,"inconclusive: 14.7 µM [inhibitor, single point]",–
CCOC(=O)c1ccc(NC(=O)CSc2nc3sc(C(=O)O)c(C)c3c(=O)[nH]2)cc1,"inconclusive: 7.38 µM [inhibitor, partial curve, poor fit]",–
CCOC(=O)c1c(O)c2cc(Cl)ccc2n(CC)c1=O,"inconclusive: 16.5 µM [inhibitor, single point]",–
N#Cc1cccc(CN2CCC(=O)N([C@H](CO)Cc3ccccc3)CC2)c1,inactive,–
CN(Cc1cn(Cc2ccccc2)nc1-c1ccc2c(c1)OCO2)Cc1nccn1C,active: 14.7 µM,–
N#Cc1nc(COc2ccccc2Cl)oc1NCc1ccco1,"inconclusive: 5.22 µM [inhibitor, full curve, poor fit]",–
COC(=O)c1ccc(C(=O)OC)c(NC(=O)CN(C)Cc2ccc(Cl)c(Cl)c2)c1,"inconclusive: 4.65 µM [inhibitor, partial curve]",–
O=C(CN1CCCCCCC1)Nc1cccc(Cl)c1Cl,inactive,–
CCOC(=O)N1CCN(C(=O)c2cc3n(n2)C(C(F)(F)F)CC(c2ccc4c(c2)OCO4)N3)CC1 (centres undefined),"inconclusive: 20.8 µM [inhibitor, single point]",–
CCN(CC)S(=O)(=O)c1ccc(N2CCN(c3cccc(OC)c3)CC2)c([N+](=O)[O-])c1,active: 9.28 µM,–
Brc1ccccc1OCCCCN1CCCCC1,"inconclusive: 11.7 µM [inhibitor, single point]",–
CCC(=O)c1ccc(OC(C)C(=O)NC2(C#N)CCCCC2)cc1 (centres undefined),–,inactive: 33.2% [at 5.75 µM]
N/C(=N\OC(=O)Oc1ccccc1)c1ccc([N+](=O)[O-])cc1,inactive,–
CSCCC(=O)N(C)CC1CCCN(CCc2cccc(C(F)(F)F)c2)C1 (centres undefined),"inconclusive: 18.5 µM [inhibitor, single point]",–
Cc1cc(C)cc(NC(=O)c2cc3c(=O)n4ccccc4nc3s2)c1,inactive,–
O=C(CCn1cccc1)NCc1ccc2c(c1)OCO2,inactive,–
Cn1c(=O)n(C)c2cc(C(=O)O)ccc21,"inconclusive: 16.5 µM [inhibitor, single point]",–
O=C(CC1Nc2ccccc2NC1=O)Nc1ccc2c(c1)OCO2 (centres undefined),inactive,–
COc1ccc(-n2c(Cn3c(=O)sc4ccccc43)nnc2SC)cc1,active: 1.85 µM,–
O=C(Nc1cc(Cl)ccc1Oc1ccccc1)c1ccccc1F,inactive,–
Cc1cccc2cc(C#N)c(NCCNS(=O)(=O)c3ccc4c(c3)OCCO4)nc12,active: 5.22 µM,–
CC(CCc1ccc(O)cc1)NCc1ccc(Cl)cc1Cl (centres undefined),inactive,–
O=C(Cn1cc(C(=O)C(F)(F)F)c2ccccc21)Nc1ccccc1F,"inconclusive: 1.04 µM [inhibitor, full curve, poor fit]",–
COc1ccc(OCC(=O)NCC(c2ccc(OC)cc2)N2CCCCC2)cc1 (centres undefined),inactive,–

SMILES,Potency,"activity change, negative = inhibition"
COc1ccc(CNC(=O)c2ccc(N3CCCC3=O)cc2)cc1,"inconclusive: 3.7 µM [inhibitor, full curve, poor fit]",–
CCCSc1nsc(NC(=O)C(c2ccccc2)c2ccccc2)n1,"inconclusive: 8.28 µM [inhibitor, partial curve, poor fit]",–
CC(=O)c1cccc(S(=O)(=O)N2CCN(c3nc4cc(C)cc(C)c4cc3C#N)CC2)c1,inactive,–
COc1cccc(-c2nn(-c3ccccc3)cc2/C=C(/NC(=O)c2ccccc2)C(=O)O)c1,inactive,–
CCOc1nc2cnccc2n(CC(=O)Nc2ccc(C)c(C)c2)c1=O,"inconclusive: 18.5 µM [inhibitor, single point]",–
COc1cc(NC(=O)c2ccccn2)cc(OC)c1OC,inactive,–
O=C(NCCS(=O)(=O)N1CCN(c2ccccc2F)CC1)c1ccco1,"inconclusive: 20.8 µM [inhibitor, single point]",–
CC(C)NC(=O)C1CCN(C2CCN(C(=O)C3=CCCC3)CC2)CC1,"inconclusive: 10.4 µM [inhibitor, partial curve]",–
CCN1CCN(CCNC(=O)CSCc2nc(-c3ccc(OC)c(OC)c3)oc2C)CC1,"inconclusive: 11.7 µM [inhibitor, single point]",–
C=CCN1C=CC(=CC=C(C#N)C#N)C=C1,inactive,–
COc1ccc(S(=O)(=O)N2CCOC2CNC(=O)C(=O)NCc2ccccc2Cl)cc1 (centres undefined),"inconclusive: 26.2 µM [inhibitor, partial curve, poor fit]",–
COc1ccc(-c2csc(NC(=O)CSc3nc(C)nc4sc(C(=O)O)c(C)c34)n2)cc1,"inconclusive: 14.7 µM [inhibitor, single point]",–
C[C@@H]1C(=O)NC2=Nc3cccc(Cl)c3CN21,inactive,–
COc1ccccc1C1(O)CCN(CC(=O)Nc2c(C)nn(C)c2C)CC1,"inconclusive: 18.5 µM [inhibitor, single point]",–
Fc1cnc(N/N=C/c2ccc(-c3ccc(Br)cc3)o2)nc1N1CCOCC1,active: 5.86 µM,–
Cn1c(C(=O)N2CCOCC2)cc2c(=O)n3ccccc3nc21,inactive,–
COc1cccc(/C=N/Nc2nc(N3CCCC3)nc(N3CCCC3)n2)c1O,inactive,–
COc1ccc(OC)c(-c2csc(NC(=O)CN3C(=O)NC4(CCCC4)C3=O)n2)c1,inactive,–
Cc1cccc(OCc2nnc(SCC(=O)c3c(N)n(C4CC4)c(=O)[nH]c3=O)o2)c1,"inconclusive: 1.17 µM [inhibitor, full curve]",–
O=C(CSc1nc2nc(-c3cccs3)cc(C(F)(F)F)c2c(=O)[nH]1)C(F)(F)F,inactive,–
Cc1ccc(NC(=O)CN2CCCC2)cc1,inactive,–
CCCCC(=O)Nc1nnc(S(=O)(=O)N(C)Cc2ccco2)s1,"inconclusive: 4.15 µM [inhibitor, single point]",–
Cc1cc(/C=N/NC(=O)c2cccc(F)c2)c(C)n1-c1ccccc1,"inconclusive: 10.4 µM [inhibitor, partial curve, poor fit]",–
O=C(/C=C/c1cccs1)c1cc(Cl)ccc1O,inactive,–
CSc1ccc(CCNC(=O)C2CCCN(c3nn4c(=O)cc(C)nc4s3)C2)cc1 (centres undefined),inactive,–

SMILES,Potency,"activity change, negative = inhibition"
COC(=O)[C@@]1(Cc2ccc(F)cc2)[C@H]2c3cc(C(=O)N4CCCC4)n(Cc4ccc(C(F)(F)F)nc4)c3C[C@H]2CN1C(=O)c1ccccc1,active: 2.08 µM,–
CSc1ccc(CCNS(=O)(=O)c2ccc3c(c2)C(C)(C)C(=O)N3C)cc1,"inconclusive: 11.7 µM [inhibitor, single point]",–
COc1ccc(NC(=O)Cc2coc3cc(C)ccc23)cn1,"inconclusive: 4.15 µM [inhibitor, single point]",–
CCN(c1ccccc1)S(=O)(=O)c1ccc(NC(=O)C(C)(C)C)cc1,"inconclusive: 18.5 µM [inhibitor, single point]",–
COc1cccc(C(=O)NC(C)CCc2ccccc2)c1 (centres undefined),"inconclusive: 18.5 µM [inhibitor, single point]",–
O=c1c2c(c(-c3ccccc3)nn1Cc1ccccc1)CCCC2,inactive,–
Cc1cc(C(=O)CN2C(=O)C(=O)N(Cc3ccccc3)C2=O)c(C)n1Cc1ccc(F)cc1,"inconclusive: 18.5 µM [inhibitor, single point]",–
c1ccc(Nc2nc3ccccc3o2)cc1,inactive,–
O=C(CSc1nn(-c2ccc(F)cc2)c(=S)s1)NCC1CCCO1 (centres undefined),"inconclusive: 18.5 µM [inhibitor, single point]",–
COc1cccc(-c2nc(N3CCC(C)CC3)c3ccccc3n2)c1O,inactive,–
CCS(=O)(=O)N1Cc2ccccc2CC1C(=O)N(C)Cc1ccc(OC)cc1OC (centres undefined),"inconclusive: 5.22 µM [inhibitor, single point]",–
Cn1cccc1C(=O)NCC1CCCCC1,"inconclusive: 18.5 µM [inhibitor, single point]",–
Cc1ccc(C)c(N2CCN(S(=O)(=O)c3ccc4c(c3)NC(=O)CS4)CC2)c1,active: 7.38 µM,–
CN(C)C(/C=C/Nc1ccc(O)cc1)=C(C#N)C#N,active: 9.28 µM,–
CCCCn1c(C)cc2c(c1=O)C1O[C@](c3ccsc3)(Cc3cc(OC)c(OC)cc31)O2,"inconclusive: 3.38 µM [inhibitor, single point]",–
C/C(=C/CCC(C)[C@H]1CC[C@@]2(C)C3=C(CC[C@]12C)[C@@]1(C)CCC(=O)C(C)(C)[C@@H]1CC3)C(=O)O (some centres undefined),"inconclusive: 18.5 µM [inhibitor, single point]",–
COc1ccccc1N(CC(=O)Nc1ccc(C(F)(F)F)cc1)S(C)(=O)=O,"inconclusive: 18.5 µM [inhibitor, single point]",–
Cc1ccn2cc(-c3ccc4c(c3)NC(=O)CO4)nc2c1,inactive,–
O=[N+]([O-])/C=C/c1c(OCc2ccccc2)ccc2ccccc12,"inconclusive: 4.15 µM [inhibitor, single point]",–
CC1CCN(S(=O)(=O)c2ccc3c(c2)oc(=O)n3CC(=O)N2CCc3ccccc3C2)CC1,"inconclusive: 18.5 µM [inhibitor, single point]",–
CCN1C(=O)/C(=C/c2nc3ccccc3c(=O)[nH]2)c2ccccc21,inactive,–
CCCOc1ccc(CCC(=O)N/N=C/c2ccco2)cc1,"inconclusive: 6.57 µM [inhibitor, partial curve]",–
CC(C)(O)[C@H]1Cc2cc3ccc(=O)oc3cc2O1,inactive,–
Cc1cccc2c1-c1sc(C(=O)N3CCCCC3)cc1CO2,"inconclusive: 1.31 µM [inhibitor, full curve, poor fit]",–

# Single values from the list:
# Value of c1ccc(Nc2nc3ccccc3o2)cc1 under Potency: inactive
# Value of Cc1cc(C(=O)CN2C(=O)C(=O)N(Cc3ccccc3)C2=O)c(C)n1Cc1ccc(F)cc1 under Potency: inconclusive: 18.5 µM [inhibitor, single point]
# Value of Cc1ccn2cc(-c3ccc4c(c3)NC(=O)CO4)nc2c1 under Potency: inactive
# Value of CN(C)C(/C=C/Nc1ccc(O)cc1)=C(C#N)C#N under Potency: active: 9.28 µM
